Consider 1 substance from paper PMC6978697.

Amino acid sequences for entries named in this document (tags omitted).
UniProt P49407: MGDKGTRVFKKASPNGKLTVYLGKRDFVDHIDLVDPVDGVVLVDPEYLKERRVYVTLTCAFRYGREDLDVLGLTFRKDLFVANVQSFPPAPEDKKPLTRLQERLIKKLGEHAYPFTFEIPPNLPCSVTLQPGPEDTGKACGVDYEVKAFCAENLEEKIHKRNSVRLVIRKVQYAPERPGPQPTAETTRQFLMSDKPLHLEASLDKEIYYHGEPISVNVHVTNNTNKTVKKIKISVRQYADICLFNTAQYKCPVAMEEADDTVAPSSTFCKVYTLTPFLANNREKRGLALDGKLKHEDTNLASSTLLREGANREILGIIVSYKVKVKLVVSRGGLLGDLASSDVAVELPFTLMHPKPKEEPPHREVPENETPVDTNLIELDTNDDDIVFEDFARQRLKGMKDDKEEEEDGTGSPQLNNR

No constants are given. Whether binding was seen depends on the method and setting. In cells and extracts the contact can be indirect. Some binding calls cover weakened binding; strength is not graded here.

The target of this test is human δ opioid receptor–Renilla luciferase (DOPr-Rluc) (human) (UniProt P41143). As to the kind of experiment: FRET or BRET; BRET2 in live HEK293 cells co-transfected with human DOPr-Rluc (donor) and arrestin-2-GFP or arrestin-3-GFP (acceptor); read 10 min after agonist (SNC80, PN6047, DADLE or ARM390) at 37°C with 5 µM coelenterazine 400a; also after preincubation with compound 101 (GRK2/3 inhibitor), which attenuated recruitment.

In the case of “arrestin-2 Green Fluorescent Protein construct (from UniProt P49407 1-418)”, the binding result is given as “binds”.
